Results on 3 molecules are retold here after US20100210525A1 (University of California, published 2010).

Amino acid sequences for entries named in this document (tags omitted). A change or cut given only in a name is not applied to a line headed by its entry. Residues count along the entry.
UniProt P26039, residues 309-405: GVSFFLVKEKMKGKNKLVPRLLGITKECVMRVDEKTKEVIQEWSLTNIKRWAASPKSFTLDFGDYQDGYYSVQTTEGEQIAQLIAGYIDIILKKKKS
Full-length β3 integrin cytoplasmic tail (P05106, residues 742-788): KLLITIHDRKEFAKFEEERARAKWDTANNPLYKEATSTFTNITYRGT
MP peptide (membrane-proximal β3 integrin tail peptide) (P05106, residues 742-765): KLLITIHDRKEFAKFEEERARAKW
UniProt O70161: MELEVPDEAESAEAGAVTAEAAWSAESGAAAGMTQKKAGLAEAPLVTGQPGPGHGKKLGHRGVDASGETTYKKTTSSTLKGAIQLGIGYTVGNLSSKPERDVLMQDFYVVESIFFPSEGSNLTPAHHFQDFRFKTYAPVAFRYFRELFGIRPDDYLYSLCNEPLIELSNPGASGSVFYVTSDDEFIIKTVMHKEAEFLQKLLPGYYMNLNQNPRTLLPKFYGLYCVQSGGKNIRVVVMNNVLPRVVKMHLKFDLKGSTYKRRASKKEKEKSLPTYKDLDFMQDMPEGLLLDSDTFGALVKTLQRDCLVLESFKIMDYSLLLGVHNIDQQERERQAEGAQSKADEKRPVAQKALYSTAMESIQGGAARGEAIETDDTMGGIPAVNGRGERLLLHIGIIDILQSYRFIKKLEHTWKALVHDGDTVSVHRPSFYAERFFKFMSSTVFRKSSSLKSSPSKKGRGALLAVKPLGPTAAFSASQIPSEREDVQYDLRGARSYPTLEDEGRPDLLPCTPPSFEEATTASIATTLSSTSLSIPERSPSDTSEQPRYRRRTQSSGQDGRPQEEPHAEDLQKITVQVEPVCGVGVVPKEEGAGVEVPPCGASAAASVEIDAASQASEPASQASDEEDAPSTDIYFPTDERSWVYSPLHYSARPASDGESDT

No constants are given. Whether binding was seen depends on the method and setting. Some binding calls cover weakened binding; strength is not graded here.

Experiment [1] addresses T1, Talin F3 sub-domain, wild type (mouse, UniProt P26039 309-405, limits assumed).
T1 construct: domain: F3 sub-domain; U-15N labelled for NMR; also called Talin F3 wt; talin F3 domain
The experiment can be described thus: 1H-15N HSQC NMR, decrease in peak height; intermediate exchange.

Experiment [2] has as its target T1, Talin F3 sub-domain, wild type. The experiment can be described thus: 1H-15N HSQC NMR of 15N talin F3 on addition of the peptide, % decrease of peak intensity per residue [second panel].
For experiment [3] the target is unchanged. The experiment can be described thus: 1H-15N HSQC NMR titration of talin F3.
Experiment [4] has the same target. The experiment in a line: 1H-15N HSQC NMR titration of 15N talin F3 with the peptide, weighted shift map per residue [first panel].
Experiment [5] has the same target. The experiment in a line: 1H-15N HSQC NMR titration of 15N talin F3 with the peptide, weighted shift map per residue.
Experiment [6] shares this target. The experiment in a line: 1H-15N HSQC NMR of 15N talin F3 on addition of the peptide, weighted shift map per residue [fourth panel].
Experiment [7] shares this target. The experiment in a line: heteronuclear 15N-1H NOEs of talin F3 in complex with the peptide.

On to “Full-length β3 integrin cytoplasmic tail (from UniProt P05106 742-788) (peptide)”, for which the binding entry in experiment [1] and in experiment [2] was “binds” throughout.

Regarding “MP peptide (membrane-proximal β3 integrin tail peptide) (from UniProt P05106 742-765)”, the binding result in experiment [3], in experiment [4] and in experiment [5] was “binds” each time.

As to WVYSPLHYSARPA (peptide, UniProt O70161 642-654, looked up) [PIPKIγ peptide], the binding entry in experiment [6] and in experiment [7] was “binds” throughout.
